Reference: patent US10828349B2, “Treatment of microbial infections” (NATIONAL UNIVERSITY OF IRELAND, GALWAY, priority 2011, dated 2020)
Where two headings read alike, the source gives them in different places.

Conditions: for thiocyanate level read after 24 hours: lactoperoxidase, glucose oxidase

## N#C[S-].[K+] [Thiocyanate, potassium thiocyanate]
1× (1.36 mM) dose incubated overnight with glucose
  thiocyanate level read after 24 hours: 0.17 × dose
1× and 5× doses, 24 hours
  drop in thiocyanate levels: 80-85%
5× (6.8 mM) dose incubated overnight with glucose
  thiocyanate level read after 24 hours: 1.1 × dose
